Earlier results, collected in patent US12121566B2, “Methods for treating gout” (Horizon Therapeutics USA, Inc., priority 2019, dated 2024).
Some entries share one result that the patent states for a list of compounds.

Settings: usual doses of azathioprine; cited from earlier work

SMILES: Sc1ncnc2nc[nH]c12 [mercaptopurine, 6-mercaptopurine]
- blood levels: < 1000 ng/mL
